# From the supplement of paper PMC7024190
# Structures can show the parent of a compound that is named as a salt. The list shows a part of the results. This data set is noisy: repeats of one test often differ as much as different tests do.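 A first-round screen of about ten thousand compounds sought those raising reporter output, using human embryonic kidney cells briefly transfected with a plasmid carrying a Renilla luciferase gene driven by the HSV-TK promoter.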
# System: HEK 293FT
# Test: log relative Renilla luciferase luminescence (reporter expression vs reference, reference not stated) (log (base not stated)); higher = higher recombinant reporter expression
# Details: 10 µM; time after transfection 48 h
row,SMILES,log
1,CCOC(=O)O[C@]1(C(=O)OCCl)CC[C@H]2[C@@H]3CCC4=CC(=O)C=C[C@]4(C)[C@H]3[C@@H](O)C[C@@]21C,-0.781
2,CNCC[C@@H](Oc1ccccc1C)c1ccccc1,0.0927
3,CC=CC(=O)N(CC)c1ccccc1C,0.311
4,CN1C(=O)CC[C@H]1c1cccnc1 [(-)-Cotinine],-0.0978
5,CCCCc1nc(Cl)c(CO)n1Cc1ccc(-c2ccccc2-c2nnn[nH]2)cc1 [LOSARTAN Potassium],0.054
6,Nc1nc(N)nc(-c2cc(Cl)ccc2Cl)n1,-0.223
7,CNCCCC12CCC(c3ccccc31)c1ccccc12 [Maprotilline HCl],0.147
8,CN(Cc1cnc2nc(N)nc(N)c2n1)c1ccc(C(=O)N[C@@H](CCC(=O)O)C(=O)O)cc1,-0.277
9,C=CC[C@@H]1/C=C(\C)C[C@H](C)C[C@H](OC)[C@H]2O[C@@](O)(C(=O)C(=O)N3CCCC[C@H]3C(=O)O[C@H](/C(C)=C/[C@@H]3CC[C@@H](O)[C@H](OC)C3)[C@H](C)[C@@H](O)CC1=O)[C@H](C)C[C@@H]2OC,-0.0818
10,CC(=O)SCC(Cc1ccccc1)C(=O)NCC(=O)OCc1ccccc1 (stereo unspecified),0.156
11,Cc1occc(=O)c1O,0.116
12,CCCN[C@H]1CCc2nc(N)sc2C1,-0.15
13,CCOc1cc(N)c(Cl)cc1C(=O)NCC1CN(Cc2ccc(F)cc2)CCO1 (stereo unspecified),-0.165
14,O=C1c2c(O)cc(O)cc2O[C@H](c2ccc(O)c(O)c2)[C@H]1O (racemic),-1.39
15,O=C(O)/C=C/c1ccc(Cn2ccnc2)cc1,-0.117
16,C=CCc1ccc(O)c(-c2ccc(O)c(CC=C)c2)c1,-0.0934

# Numbers 2 to 4, reprinted for reference:
row,SMILES,log
2,CNCC[C@@H](Oc1ccccc1C)c1ccccc1,0.0927
3,CC=CC(=O)N(CC)c1ccccc1C,0.311
4,CN1C(=O)CC[C@H]1c1cccnc1 [(-)-Cotinine],-0.0978
